According to paper PMC11186355:
Results are given in words; binding and its absence hold for the method and conditions named. Binding seen in cells or lysates may run through a third protein. Here binding means that the protein was enriched with, or labelled near, the bait; the list need not be complete. Sequences can lack the tags named with a protein.

By UniProt entry, the sequences of proteins in these tests, tags left out.
UniProt O94973: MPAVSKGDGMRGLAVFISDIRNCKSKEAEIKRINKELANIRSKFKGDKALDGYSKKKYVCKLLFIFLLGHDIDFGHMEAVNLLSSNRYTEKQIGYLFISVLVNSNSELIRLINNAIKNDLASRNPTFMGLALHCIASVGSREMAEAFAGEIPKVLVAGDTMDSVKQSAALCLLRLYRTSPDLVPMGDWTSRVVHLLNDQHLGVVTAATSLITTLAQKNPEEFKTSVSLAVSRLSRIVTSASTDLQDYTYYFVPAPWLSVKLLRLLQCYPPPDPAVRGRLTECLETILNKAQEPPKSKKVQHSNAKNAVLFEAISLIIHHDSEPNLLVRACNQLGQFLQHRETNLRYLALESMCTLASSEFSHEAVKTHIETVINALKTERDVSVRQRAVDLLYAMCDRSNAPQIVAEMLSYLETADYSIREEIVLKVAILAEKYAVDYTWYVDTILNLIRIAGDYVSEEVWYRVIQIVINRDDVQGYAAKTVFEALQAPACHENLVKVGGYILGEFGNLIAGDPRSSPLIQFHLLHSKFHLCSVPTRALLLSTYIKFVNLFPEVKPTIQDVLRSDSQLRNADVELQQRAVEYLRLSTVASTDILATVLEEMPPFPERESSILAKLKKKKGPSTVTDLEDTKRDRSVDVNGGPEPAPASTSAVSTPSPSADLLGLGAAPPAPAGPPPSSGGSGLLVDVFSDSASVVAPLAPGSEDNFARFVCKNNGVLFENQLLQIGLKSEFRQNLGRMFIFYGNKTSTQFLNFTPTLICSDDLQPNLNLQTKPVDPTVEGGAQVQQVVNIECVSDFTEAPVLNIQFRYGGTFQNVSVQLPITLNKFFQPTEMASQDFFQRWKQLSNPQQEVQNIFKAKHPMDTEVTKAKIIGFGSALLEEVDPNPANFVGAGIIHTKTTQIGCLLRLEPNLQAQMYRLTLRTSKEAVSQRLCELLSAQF
UniProt Q9Y2I6: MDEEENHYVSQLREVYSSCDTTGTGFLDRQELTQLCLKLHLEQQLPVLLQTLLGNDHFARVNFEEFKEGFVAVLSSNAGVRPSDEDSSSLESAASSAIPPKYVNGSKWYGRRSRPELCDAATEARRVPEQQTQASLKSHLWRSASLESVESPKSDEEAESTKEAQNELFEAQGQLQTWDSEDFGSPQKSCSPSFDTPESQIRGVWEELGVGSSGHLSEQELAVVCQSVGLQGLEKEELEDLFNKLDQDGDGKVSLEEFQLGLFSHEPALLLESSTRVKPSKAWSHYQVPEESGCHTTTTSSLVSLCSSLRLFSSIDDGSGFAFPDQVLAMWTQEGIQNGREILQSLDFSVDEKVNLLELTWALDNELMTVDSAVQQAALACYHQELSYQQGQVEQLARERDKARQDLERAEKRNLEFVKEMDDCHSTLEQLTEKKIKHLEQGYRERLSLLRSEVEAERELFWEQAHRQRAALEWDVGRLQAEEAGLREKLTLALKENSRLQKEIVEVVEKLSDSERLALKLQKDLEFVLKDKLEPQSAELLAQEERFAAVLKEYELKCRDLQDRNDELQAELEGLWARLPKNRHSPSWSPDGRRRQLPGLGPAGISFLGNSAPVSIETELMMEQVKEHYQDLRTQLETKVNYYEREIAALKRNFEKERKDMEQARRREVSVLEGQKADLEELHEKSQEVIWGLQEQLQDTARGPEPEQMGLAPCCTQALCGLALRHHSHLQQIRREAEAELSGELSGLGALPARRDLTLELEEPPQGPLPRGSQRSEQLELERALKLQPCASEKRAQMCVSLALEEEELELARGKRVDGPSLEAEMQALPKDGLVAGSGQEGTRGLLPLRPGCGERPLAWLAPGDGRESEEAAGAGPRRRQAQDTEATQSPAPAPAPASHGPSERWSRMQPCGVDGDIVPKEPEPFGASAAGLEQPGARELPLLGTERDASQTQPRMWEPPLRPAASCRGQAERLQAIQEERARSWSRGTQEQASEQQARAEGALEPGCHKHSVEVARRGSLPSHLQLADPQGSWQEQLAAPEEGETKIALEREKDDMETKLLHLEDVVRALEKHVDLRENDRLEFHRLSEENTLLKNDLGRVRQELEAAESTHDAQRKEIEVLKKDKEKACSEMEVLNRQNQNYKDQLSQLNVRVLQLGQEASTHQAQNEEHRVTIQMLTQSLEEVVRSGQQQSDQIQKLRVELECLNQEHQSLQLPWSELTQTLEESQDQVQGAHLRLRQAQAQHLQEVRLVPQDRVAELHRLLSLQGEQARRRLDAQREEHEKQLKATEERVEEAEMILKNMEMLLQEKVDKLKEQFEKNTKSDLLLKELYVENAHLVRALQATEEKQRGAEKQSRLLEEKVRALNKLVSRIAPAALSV

Target: T1, SEC31A-TurboID-V5 (UniProt O94979)
T1 sequence: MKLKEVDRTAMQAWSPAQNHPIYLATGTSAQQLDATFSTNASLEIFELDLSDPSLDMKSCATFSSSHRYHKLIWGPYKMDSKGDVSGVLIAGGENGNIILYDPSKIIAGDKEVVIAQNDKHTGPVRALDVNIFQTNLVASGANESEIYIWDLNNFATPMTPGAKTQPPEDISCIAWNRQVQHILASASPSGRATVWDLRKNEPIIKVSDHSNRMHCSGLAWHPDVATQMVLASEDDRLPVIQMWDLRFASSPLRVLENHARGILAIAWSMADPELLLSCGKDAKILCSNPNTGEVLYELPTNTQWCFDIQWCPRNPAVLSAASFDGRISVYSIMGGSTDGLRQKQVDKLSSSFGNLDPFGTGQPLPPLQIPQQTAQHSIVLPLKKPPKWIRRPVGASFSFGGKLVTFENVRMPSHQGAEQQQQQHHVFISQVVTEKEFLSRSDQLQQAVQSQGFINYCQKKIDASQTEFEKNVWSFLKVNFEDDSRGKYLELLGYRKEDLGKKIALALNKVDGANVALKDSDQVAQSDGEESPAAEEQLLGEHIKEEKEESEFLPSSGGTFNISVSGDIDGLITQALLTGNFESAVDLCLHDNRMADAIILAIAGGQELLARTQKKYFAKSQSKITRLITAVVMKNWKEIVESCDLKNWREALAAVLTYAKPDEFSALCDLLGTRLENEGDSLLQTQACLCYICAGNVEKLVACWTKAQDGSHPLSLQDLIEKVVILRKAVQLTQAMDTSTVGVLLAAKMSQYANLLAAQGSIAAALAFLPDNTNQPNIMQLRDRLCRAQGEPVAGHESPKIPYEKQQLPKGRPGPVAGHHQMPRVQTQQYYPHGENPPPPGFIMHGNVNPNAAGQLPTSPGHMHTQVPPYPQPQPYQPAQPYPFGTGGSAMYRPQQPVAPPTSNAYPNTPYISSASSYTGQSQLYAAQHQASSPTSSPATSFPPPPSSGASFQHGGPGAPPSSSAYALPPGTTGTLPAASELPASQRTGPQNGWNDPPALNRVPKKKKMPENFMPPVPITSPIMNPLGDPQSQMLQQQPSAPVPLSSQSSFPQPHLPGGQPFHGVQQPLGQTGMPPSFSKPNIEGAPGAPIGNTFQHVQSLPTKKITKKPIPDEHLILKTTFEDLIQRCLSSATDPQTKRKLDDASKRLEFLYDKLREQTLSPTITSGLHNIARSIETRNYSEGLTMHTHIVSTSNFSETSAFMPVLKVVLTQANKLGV
Test: proximity labelling; SEC31A-TurboID-V5 in HeLa cells, 50 μM biotin for 10 min against no biotin; streptavidin magnetic beads, label-free LC-MS/MS; FC≥4 and p<0.05, n=3

Substance | binding
AP2A2 (from UniProt O94973 1-939) | binds
Ninein-like protein (Nlp) (from UniProt Q9Y2I6 1-1382) | binds
